From publication doi:10.1101/264788 come the findings set out here.

Protein sequences, listed by entry. Tags and fused reporters are not part of them. Residues count along the entry.
UniProt P25786: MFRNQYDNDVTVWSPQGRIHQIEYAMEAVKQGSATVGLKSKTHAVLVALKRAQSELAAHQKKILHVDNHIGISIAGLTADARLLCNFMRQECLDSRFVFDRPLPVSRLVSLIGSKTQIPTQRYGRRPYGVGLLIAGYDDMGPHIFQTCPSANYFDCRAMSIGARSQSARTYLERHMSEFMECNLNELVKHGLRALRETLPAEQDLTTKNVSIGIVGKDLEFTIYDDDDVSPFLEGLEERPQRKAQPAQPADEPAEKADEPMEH
UniProt P02545, residues 1-646: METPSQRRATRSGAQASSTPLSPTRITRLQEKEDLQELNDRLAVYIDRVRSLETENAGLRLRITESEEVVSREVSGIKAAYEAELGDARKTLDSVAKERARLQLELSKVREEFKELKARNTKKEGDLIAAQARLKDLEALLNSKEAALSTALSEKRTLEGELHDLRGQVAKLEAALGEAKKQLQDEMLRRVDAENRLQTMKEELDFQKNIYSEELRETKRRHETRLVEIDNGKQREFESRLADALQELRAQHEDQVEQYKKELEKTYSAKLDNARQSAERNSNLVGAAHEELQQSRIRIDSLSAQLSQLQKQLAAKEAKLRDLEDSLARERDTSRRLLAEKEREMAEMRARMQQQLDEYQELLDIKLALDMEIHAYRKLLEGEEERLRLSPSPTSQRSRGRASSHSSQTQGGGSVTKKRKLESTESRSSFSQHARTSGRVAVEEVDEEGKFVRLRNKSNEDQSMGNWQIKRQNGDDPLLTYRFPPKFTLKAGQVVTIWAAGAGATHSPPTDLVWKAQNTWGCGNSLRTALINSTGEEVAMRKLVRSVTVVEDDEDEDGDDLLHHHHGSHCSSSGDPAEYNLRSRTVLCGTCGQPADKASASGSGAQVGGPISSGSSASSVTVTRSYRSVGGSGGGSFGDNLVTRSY
UniProt P49336: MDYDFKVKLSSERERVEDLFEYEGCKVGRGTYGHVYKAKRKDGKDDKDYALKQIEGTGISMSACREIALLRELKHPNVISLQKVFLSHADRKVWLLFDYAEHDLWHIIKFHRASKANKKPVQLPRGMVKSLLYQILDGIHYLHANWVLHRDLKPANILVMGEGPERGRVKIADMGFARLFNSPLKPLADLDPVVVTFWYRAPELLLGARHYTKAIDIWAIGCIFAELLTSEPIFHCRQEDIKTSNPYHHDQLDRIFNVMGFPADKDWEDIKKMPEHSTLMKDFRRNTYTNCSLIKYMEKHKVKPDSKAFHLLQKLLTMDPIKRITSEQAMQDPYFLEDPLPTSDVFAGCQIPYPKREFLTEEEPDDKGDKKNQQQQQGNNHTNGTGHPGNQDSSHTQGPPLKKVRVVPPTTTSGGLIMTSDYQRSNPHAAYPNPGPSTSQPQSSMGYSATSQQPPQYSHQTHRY
UniProt Q9UHV7: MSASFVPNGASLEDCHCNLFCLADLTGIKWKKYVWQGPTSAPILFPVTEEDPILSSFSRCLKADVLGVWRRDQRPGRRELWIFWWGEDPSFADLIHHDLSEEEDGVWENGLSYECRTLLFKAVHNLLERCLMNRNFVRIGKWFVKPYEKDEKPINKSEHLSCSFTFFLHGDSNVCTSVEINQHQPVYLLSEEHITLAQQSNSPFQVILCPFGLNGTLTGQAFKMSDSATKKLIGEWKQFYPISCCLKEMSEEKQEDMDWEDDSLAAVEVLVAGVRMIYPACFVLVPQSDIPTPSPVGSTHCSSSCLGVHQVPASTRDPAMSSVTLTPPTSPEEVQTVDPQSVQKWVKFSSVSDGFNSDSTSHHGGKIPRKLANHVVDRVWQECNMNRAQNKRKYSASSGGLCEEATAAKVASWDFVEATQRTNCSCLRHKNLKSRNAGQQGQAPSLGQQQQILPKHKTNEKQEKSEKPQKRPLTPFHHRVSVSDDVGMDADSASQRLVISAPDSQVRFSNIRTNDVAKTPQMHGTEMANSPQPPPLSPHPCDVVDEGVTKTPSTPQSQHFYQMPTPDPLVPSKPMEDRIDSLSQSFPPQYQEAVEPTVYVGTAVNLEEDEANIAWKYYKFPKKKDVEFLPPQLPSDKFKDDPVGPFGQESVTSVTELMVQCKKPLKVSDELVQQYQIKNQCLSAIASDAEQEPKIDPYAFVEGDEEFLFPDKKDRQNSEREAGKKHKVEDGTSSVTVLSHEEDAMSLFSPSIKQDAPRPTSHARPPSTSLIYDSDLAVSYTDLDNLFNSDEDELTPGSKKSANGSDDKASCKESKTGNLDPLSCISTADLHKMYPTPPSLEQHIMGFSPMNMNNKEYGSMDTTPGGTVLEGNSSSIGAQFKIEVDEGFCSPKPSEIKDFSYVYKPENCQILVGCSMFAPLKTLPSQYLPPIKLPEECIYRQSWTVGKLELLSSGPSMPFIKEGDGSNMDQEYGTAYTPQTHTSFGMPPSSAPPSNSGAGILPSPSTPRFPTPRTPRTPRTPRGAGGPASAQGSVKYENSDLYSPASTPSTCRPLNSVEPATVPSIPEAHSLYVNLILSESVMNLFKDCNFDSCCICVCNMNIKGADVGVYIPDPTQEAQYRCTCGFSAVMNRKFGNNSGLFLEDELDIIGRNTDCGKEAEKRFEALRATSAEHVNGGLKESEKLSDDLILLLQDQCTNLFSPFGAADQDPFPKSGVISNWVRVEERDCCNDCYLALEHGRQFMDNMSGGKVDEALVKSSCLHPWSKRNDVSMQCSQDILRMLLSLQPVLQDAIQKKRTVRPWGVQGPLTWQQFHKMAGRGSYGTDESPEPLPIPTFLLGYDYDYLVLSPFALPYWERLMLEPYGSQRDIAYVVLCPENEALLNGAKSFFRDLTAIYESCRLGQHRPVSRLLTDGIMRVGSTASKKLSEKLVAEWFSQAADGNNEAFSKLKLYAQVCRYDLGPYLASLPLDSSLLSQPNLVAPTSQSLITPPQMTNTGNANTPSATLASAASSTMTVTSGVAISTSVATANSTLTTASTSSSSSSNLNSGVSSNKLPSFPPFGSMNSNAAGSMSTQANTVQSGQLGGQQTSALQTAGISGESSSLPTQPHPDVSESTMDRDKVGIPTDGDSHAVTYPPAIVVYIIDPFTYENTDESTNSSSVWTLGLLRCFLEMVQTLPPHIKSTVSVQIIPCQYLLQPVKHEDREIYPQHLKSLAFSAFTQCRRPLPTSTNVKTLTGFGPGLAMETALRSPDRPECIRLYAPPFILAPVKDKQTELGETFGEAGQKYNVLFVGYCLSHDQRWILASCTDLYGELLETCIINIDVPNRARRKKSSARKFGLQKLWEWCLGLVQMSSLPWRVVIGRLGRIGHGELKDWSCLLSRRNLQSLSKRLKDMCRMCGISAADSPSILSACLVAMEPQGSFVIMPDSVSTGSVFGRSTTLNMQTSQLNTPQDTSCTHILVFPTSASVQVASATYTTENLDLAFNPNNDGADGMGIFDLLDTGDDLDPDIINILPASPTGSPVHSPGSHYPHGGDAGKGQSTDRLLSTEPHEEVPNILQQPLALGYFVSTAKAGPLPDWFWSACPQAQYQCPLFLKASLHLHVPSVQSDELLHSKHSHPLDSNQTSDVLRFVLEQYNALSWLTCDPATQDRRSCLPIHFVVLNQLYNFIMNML
UniProt P50613: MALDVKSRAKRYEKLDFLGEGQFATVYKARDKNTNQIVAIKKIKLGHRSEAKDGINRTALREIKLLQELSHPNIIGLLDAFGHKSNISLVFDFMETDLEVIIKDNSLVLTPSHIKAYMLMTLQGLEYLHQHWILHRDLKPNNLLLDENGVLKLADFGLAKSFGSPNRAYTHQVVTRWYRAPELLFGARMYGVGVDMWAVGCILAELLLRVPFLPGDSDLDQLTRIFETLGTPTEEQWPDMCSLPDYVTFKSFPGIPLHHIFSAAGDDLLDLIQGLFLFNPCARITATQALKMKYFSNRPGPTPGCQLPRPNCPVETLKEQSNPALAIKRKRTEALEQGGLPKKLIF
UniProt Q8N726: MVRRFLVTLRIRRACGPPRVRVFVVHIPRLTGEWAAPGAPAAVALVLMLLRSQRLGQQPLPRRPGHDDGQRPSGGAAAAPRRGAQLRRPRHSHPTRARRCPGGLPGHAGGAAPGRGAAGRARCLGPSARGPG
UniProt P09874: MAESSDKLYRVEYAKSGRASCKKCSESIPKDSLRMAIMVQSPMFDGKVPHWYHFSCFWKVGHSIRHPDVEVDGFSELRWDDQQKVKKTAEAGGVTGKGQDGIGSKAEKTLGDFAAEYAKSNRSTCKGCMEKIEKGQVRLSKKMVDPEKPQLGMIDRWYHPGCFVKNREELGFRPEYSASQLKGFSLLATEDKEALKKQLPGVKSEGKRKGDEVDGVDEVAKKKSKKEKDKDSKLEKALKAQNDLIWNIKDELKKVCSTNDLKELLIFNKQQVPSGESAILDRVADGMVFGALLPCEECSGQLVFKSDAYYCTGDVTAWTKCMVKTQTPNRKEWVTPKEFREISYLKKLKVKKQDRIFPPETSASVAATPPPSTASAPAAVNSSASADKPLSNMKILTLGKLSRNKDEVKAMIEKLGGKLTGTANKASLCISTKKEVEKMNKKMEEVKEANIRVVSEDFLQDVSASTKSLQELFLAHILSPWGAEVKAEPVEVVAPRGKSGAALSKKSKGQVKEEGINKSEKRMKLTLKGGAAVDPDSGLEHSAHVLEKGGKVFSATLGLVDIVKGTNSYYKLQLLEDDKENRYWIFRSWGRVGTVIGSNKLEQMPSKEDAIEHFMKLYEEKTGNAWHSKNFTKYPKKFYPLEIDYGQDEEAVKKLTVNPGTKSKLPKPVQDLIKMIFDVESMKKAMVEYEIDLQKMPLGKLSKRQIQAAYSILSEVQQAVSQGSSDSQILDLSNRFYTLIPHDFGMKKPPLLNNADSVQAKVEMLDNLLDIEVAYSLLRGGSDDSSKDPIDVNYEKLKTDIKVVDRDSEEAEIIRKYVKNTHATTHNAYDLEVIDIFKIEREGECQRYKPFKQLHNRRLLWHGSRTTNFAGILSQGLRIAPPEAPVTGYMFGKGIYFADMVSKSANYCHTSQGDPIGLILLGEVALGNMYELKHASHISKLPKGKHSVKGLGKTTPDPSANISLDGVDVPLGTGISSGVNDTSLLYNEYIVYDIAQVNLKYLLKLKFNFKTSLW
UniProt O60244: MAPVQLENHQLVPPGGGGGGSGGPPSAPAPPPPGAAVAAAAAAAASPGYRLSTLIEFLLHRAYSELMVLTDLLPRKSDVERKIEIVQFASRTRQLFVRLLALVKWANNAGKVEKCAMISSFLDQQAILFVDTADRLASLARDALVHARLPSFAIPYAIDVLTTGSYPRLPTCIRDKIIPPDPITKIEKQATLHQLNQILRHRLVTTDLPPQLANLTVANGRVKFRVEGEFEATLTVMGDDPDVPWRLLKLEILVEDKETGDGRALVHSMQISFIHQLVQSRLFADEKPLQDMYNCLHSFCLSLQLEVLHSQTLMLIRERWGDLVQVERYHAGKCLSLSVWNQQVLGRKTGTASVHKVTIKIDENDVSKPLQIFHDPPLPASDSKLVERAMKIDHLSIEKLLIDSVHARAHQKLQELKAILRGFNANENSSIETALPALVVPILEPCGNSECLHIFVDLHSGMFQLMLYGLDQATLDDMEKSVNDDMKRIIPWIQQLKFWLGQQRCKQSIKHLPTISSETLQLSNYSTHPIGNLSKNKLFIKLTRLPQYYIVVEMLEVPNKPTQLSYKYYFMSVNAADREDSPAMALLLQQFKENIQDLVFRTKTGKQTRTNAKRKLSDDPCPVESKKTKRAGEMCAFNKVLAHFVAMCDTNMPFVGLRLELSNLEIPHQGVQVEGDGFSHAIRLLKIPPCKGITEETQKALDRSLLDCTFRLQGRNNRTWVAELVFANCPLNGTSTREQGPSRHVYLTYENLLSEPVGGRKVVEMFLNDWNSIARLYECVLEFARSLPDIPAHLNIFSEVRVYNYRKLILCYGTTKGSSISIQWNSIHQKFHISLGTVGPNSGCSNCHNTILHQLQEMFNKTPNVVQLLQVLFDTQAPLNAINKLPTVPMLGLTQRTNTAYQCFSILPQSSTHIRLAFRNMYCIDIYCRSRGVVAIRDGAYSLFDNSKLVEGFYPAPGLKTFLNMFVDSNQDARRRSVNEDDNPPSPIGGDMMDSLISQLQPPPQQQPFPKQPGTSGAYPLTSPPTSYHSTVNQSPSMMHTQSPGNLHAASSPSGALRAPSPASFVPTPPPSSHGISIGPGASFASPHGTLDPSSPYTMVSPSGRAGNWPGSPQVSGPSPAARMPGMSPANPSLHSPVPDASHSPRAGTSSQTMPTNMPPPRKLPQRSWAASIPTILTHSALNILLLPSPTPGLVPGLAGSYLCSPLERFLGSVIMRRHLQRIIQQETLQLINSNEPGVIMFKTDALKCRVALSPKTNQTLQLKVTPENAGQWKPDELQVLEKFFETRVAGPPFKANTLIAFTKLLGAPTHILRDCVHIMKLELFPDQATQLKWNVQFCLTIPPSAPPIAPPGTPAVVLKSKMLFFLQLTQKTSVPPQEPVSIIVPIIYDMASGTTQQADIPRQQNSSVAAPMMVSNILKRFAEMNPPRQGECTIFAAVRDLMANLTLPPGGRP

Like-named read-outs stand apart in the source and are kept apart here. Results are given in words; binding and its absence hold for the method and conditions named. Binding seen in cells or lysates may run through a third protein. A yes stands for co-enrichment or nearness to the bait. Other partners may have been found.

The target in assay [1] is Proteasome subunit alpha type-1, MAC-tagged (human) (UniProt P25786). The assay can be described thus: proximity labelling.
The target of assay [2] is Prelamin-A/C, MAC-tagged (human) (UniProt P02545). Briefly: affinity purification with mass spectrometry + proximity labelling.
For assay [3], the target named is cyclin-dependent kinase (CDK) 8, MAC-tagged (UniProt P49336). The assay is described as above.
The target of assay [4] is mediator of RNA polymerase II transcription subunit 13, MAC-tagged (UniProt Q9UHV7). The description is as above.
In assay [5] the target is Prelamin-A/C, MAC-tagged (human) (UniProt P02545). The description is as above. This is another data set of the same source.
In assay [6] the target is cyclin-dependent kinase (CDK) 7, MAC-tagged (UniProt P50613). The assay can be described thus: proximity labelling.
For assay [7] the target is unchanged. Briefly: affinity purification with mass spectrometry.

With MYH10 (from UniProt P35580 1-1976), the binding result in assay [1] is “binds”.
On to ARF (from UniProt Q8N726 1-132), for which the binding result in assay [2] is given as “binds”.
On the same count and under the same terms, for KI67 (from UniProt P46013 1-3256) the value was “binds”; for RAD50 (from UniProt Q92878 1-1312), “binds”; for PARP1 (from UniProt P09874), “binds”.
Regarding MED15 (from UniProt Q96RN5 1-788), the binding entry in assay [3] and in assay [4] was “binds” throughout.
On to MYO6 (from UniProt Q9UM54 1-1294), for which the binding result in assay [1] is listed as “binds”.
Still for that read-out and setting: next, MYO1B (from UniProt O43795 1-1136): “binds”; MYH14 (from UniProt Q7Z406 1-1995): “binds”.
Turning to MED1 (from UniProt Q15648 1-1581), the binding result in assay [3] and in assay [4] was “binds” throughout.
As for MED14 (from UniProt O60244 1-1454), the binding entry in assay [3] and in assay [4] was “binds” each time.
As to HDGR2 (from UniProt Q7Z4V5 1-671), in assay [2], the binding result is “binds”.

B1: MYSM1 (protein, UniProt Q5VVJ2 1-828)
chain: MAAEEADVDIEGDVVAAAGAQPGSGENTASVLQKDHYLDSSWRTENGLIPWTLDNTISEENRAVIEKMLLEEEYYLSKKSQPEKVWLDQKEDDKKYMKSLQKTAKIMVHSPTKPASYSVKWTIEEKELFEQGLAKFGRRWTKISKLIGSRTVLQVKSYARQYFKNKVKCGLDKETPNQKTGHNLQVKNEDKGTKAWTPSCLRGRADPNLNAVKIEKLSDDEEVDITDEVDELSSQTPQKNSSSDLLLDFPNSKMHETNQGEFITSDSQEALFSKSSRGCLQNEKQDETLSSSEITLWTEKQSNGDKKSIELNDQKFNELIKNCNKHDGRGIIVDARQLPSPEPCEIQKNLNDNEMLFHSCQMVEESHEEEELKPPEQEIEIDRNIIQEEEKQAIPEFFEGRQAKTPERYLKIRNYILDQWEICKPKYLNKTSVRPGLKNCGDVNCIGRIHTYLELIGAINFGCEQAVYNRPQTVDKVRIRDRKDAVEAYQLAQRLQSMRTRRRRVRDPWGNWCDAKDLEGQTFEHLSAEELAKRREEEKGRPVKSLKVPRPTKSSFDPFQLIPCNFFSEEKQEPFQVKVASEALLIMDLHAHVSMAEVIGLLGGRYSEVDKVVEVCAAEPCNSLSTGLQCEMDPVSQTQASETLAVRGFSVIGWYHSHPAFDPNPSLRDIDTQAKYQSYFSRGGAKFIGMIVSPYNRNNPLPYSQITCLVISEEISPDGSYRLPYKFEVQQMLEEPQWGLVFEKTRWIIEKYRLSHSSVPMDKIFRRDSDLTCLQKLLECMRKTLSKVTNCFMAEEFLTEIENLFLSNYKSNQENGVTEENCTKELLM
B1: the binding result in assay [5] is “binds”.

B2: MYO1D (protein, UniProt O94832 1-1006)
chain: MAEQESLEFGKADFVLMDTVSMPEFMANLRLRFEKGRIYTFIGEVVVSVNPYKLLNIYGRDTIEQYKGRELYERPPHLFAIADAAYKAMKRRSKDTCIVISGESGAGKTEASKYIMQYIAAITNPSQRAEVERVKNMLLKSNCVLEAFGNAKTNRNDNSSRFGKYMDINFDFKGDPIGGHINNYLLEKSRVIVQQPGERSFHSFYQLLQGGSEQMLRSLHLQKSLSSYNYIHVGAQLKSSINDAAEFRVVADAMKVIGFKPEEIQTVYKILAAILHLGNLKFVVDGDTPLIENGKVVSIIAELLSTKTDMVEKALLYRTVATGRDIIDKQHTEQEASYGRDAFAKAIYERLFCWIVTRINDIIEVKNYDTTIHGKNTVIGVLDIYGFEIFDNNSFEQFCINYCNEKLQQLFIQLVLKQEQEEYQREGIPWKHIDYFNNQIIVDLVEQQHKGIIAILDDACMNVGKVTDEMFLEALNSKLGKHAHFSSRKLCASDKILEFDRDFRIRHYAGDVVYSVIGFIDKNKDTLFQDFKRLMYNSSNPVLKNMWPEGKLSITEVTKRPLTAATLFKNSMIALVDNLASKEPYYVRCIKPNDKKSPQIFDDERCRHQVEYLGLLENVRVRRAGFAFRQTYEKFLHRYKMISEFTWPNHDLPSDKEAVKKLIERCGFQDDVAYGKTKIFIRTPRTLFTLEELRAQMLIRIVLFLQKVWRGTLARMRYKRTKAALTIIRYYRRYKVKSYIHEVARRFHGVKTMRDYGKHVKWPSPPKVLRRFEEALQTIFNRWRASQLIKSIPASDLPQVRAKVAAVEMLKGQRADLGLQRAWEGNYLASKPDTPQTSGTFVPVANELKRKDKYMNVLFSCHVRKVNRFSKVEDRAIFVTDRHLYKMDPTKQYKVMKTIPLYNLTGLSVSNGKDQLVVFHTKDNKDLIVCLFSKQPTHESRIGELVGVLVNHFKSEKRHLQVNVTNPVQCSLHGKKCTVSVETRLNQPQPDFTKNRSGFILSVPGN
Turning to B2, the binding result in assay [1] is recorded as “binds”.

B3: AKP8L (protein, UniProt Q9ULX6 1-646)
chain: MSYTGFVQGSETTLQSTYSDTSAQPTCDYGYGTWNSGTNRGYEGYGYGYGYGQDNTTNYGYGMATSHSWEMPSSDTNANTSASGSASADSVLSRINQRLDMVPHLETDMMQGGVYGSGGERYDSYESCDSRAVLSERDLYRSGYDYSELDPEMEMAYEGQYDAYRDQFRMRGNDTFGPRAQGWARDARSGRPMASGYGRMWEDPMGARGQCMSGASRLPSLFSQNIIPEYGMFQGMRGGGAFPGGSRFGFGFGNGMKQMRRTWKTWTTADFRTKKKKRKQGGSPDEPDSKATRTDCSDNSDSDNDEGTEGEATEGLEGTEAVEKGSRVDGEDEEGKEDGREEGKEDPEKGALTTQDENGQTKRKLQAGKKSQDKQKKRQRDRMVERIQFVCSLCKYRTFYEDEMASHLDSKFHKEHFKYVGTKLPKQTADFLQEYVTNKTKKTEELRKTVEDLDGLIQQIYRDQDLTQEIAMEHFVKKVEAAHCAACDLFIPMQFGIIQKHLKTMDHNRNRRLMMEQSKKSSLMVARSILNNKLISKKLERYLKGENPFTDSPEEEKEQEEAEGGALDEGAQGEAAGISEGAEGVPAQPPVPPEPAPGAVSPPPPPPPEEEEEGAVPLLGGALQRQIRGIPGLDVEDDEEGGGGAP
B3: the binding result in assay [5] is reported as “binds”.

B4: TFIIH4 (protein, UniProt Q92759 1-462)
chain: MESTPSRGLNRVHLQCRNLQEFLGGLSPGVLDRLYGHPATCLAVFRELPSLAKNWVMRMLFLEQPLPQAAVALWVKKEFSKAQEESTGLLSGLRIWHTQLLPGGLQGLILNPIFRQNLRIALLGGGKAWSDDTSQLGPDKHARDVPSLDKYAEERWEVVLHFMVGSPSAAVSQDLAQLLSQAGLMKSTEPGEPPCITSAGFQFLLLDTPAQLWYFMLQYLQTAQSRGMDLVEILSFLFQLSFSTLGKDYSVEGMSDSLLNFLQHLREFGLVFQRKRKSRRYYPTRLAINLSSGVSGAGGTVHQPGFIVVETNYRLYAYTESELQIALIALFSEMLYRFPNMVVAQVTRESVQQAIASGITAQQIIHFLRTRAHPVMLKQTPVLPPTITDQIRLWELERDRLRFTEGVLYNQFLSQVDFELLLAHARELGVLVFENSAKRLMVVTPAGHSDVKRFWKRQKHSS
With B4, the binding result in assay [6] and in assay [7] was “binds” throughout.

B5: TFIIH2 (protein, UniProt Q13888 1-395)
chain: MDEEPERTKRWEGGYERTWEILKEDESGSLKATIEDILFKAKRKRVFEHHGQVRLGMMRHLYVVVDGSRTMEDQDLKPNRLTCTLKLLEYFVEEYFDQNPISQIGIIVTKSKRAEKLTELSGNPRKHITSLKKAVDMTCHGEPSLYNSLSIAMQTLKHMPGHTSREVLIIFSSLTTCDPSNIYDLIKTLKAAKIRVSVIGLSAEVRVCTVLARETGGTYHVILDESHYKELLTHHVSPPPASSSSECSLIRMGFPQHTIASLSDQDAKPSFSMAHLDGNTEPGLTLGGYFCPQCRAKYCELPVECKICGLTLVSAPHLARSYHHLFPLDAFQEIPLEEYNGERFCYGCQGELKDQHVYVCAVCQNVFCVDCDVFVHDSLHCCPGCIHKIPAPSGV
Turning to B5, the binding entry in assay [6] and in assay [7] was “binds” each time.

B6: EDF1 (protein, UniProt O60869 1-148)
chain: MAESDWDTVTVLRKKGPTAAQAKSKQAILAAQRRGEDVETSKKWAAGQNKQHSITKNTAKLDRETEELHHDRVTLEVGKVIQQGRQSKGLTQKDLATKINEKPQVIADYESGRAIPNNQVLGKIERAIGLKLRGKDIGKPIEKGPRAK
Consider B6, for which the binding result in assay [5] was “binds”.

B7: TFIIH3 (protein, UniProt Q13889 1-308)
chain: MVSDEDELNLLVIVVDANPIWWGKQALKESQFTLSKCIDAVMVLGNSHLFMNRSNKLAVIASHIQESRFLYPGKNGRLGDFFGDPGNPPEFNPSGSKDGKYELLTSANEVIVEEIKDLMTKSDIKGQHTETLLAGSLAKALCYIHRMNKEVKDNQEMKSRILVIKAAEDSALQYMNFMNVIFAAQKQNILIDACVLDSDSGLLQQACDITGGLYLKVPQMPSLLQYLLWVFLPDQDQRSQLILPPPVHVDYRAACFCHRNLIEIGYVCSVCLSIFCNFSPICTTCETAFKISLPPVLKAKKKKLKVSA
Consider B7, for which the binding result in assay [6] and in assay [7] was “binds” throughout.

B8: TFIIH5 (protein, UniProt Q6ZYL4 1-71)
chain: MVNVLKGVLIECDPAMKQFLLYLDESNALGKKFIIQDIDDTHVFVIAELVNVLQERVGELMDQNAFSLTQK
For B8, the binding entry in assay [6] and in assay [7] was “binds” in each case.
